In the supplement of paper PMC12823440, “Inhibitors supercharge kinase turnover through native proteolytic circuits” (Nature, 2025):
Where a name gives a salt, the structure may show the parent alone. Some of the results follow. The calls rarely recur for the same compound in another form.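 Kinases, fused to nanoluciferase, were expressed in K562 cells; luminescence was measured every 4 h from 2 to 18 h as percent of control (DMSO = 100%, positive control = 0%). A time point is decreased if signal falls significantly (2 sigma). Hits were called by the authors by a rule that is not shown; the count of time points alone does not decide it.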

Amino acid sequences for entries named in this document (tags omitted).
UniProt Q9NYA1, whole entry: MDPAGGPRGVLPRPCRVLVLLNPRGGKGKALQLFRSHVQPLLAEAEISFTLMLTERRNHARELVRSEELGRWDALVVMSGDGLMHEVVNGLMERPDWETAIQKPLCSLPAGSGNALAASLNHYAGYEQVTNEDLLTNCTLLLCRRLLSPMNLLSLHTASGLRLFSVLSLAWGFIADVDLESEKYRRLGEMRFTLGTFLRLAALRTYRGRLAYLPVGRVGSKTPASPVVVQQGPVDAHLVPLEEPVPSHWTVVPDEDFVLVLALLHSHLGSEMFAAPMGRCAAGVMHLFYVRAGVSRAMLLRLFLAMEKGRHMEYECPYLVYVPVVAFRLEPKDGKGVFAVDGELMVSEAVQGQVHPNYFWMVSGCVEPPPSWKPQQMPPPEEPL

target: SPHK1 (UniProt Q9NYA1); assay: number of time points (of 5) at which kinase-Nluc abundance scored as decreased, DMSO-normalised (count); higher = more persistent destabilization; conditions: K562; 2-18 h

Compound	number of time points
COc1ccc(Br)c(C=O)c1O [6-Bromo-2-hydroxy-3-methoxybenzaldehyde] (10 µM)	0
O=C1C=CC2=C3c4cc(O)c(O)cc4CC3(O)COC2=C1O (configuration not stated) [Hematein] (10 µM)	0
Cc1cccc(CC(=O)N2CCc3c2ccc(-c2cn(C)c4ncnc(N)c24)c3F)n1 (10 µM)	5
COCCOc1cnc2ccn([C@H](C)c3nnc4c(F)cc(-c5cnn(C)c5)cn34)c(=O)c2c1 (10 µM)	0
Cn1cc(C2=C(c3ccc(Cl)cc3Cl)C(=O)NC2=O)c2ccccc21 (10 µM)	0
COc1cc(N2CCC(N3CCN(C)CC3)CC2)ccc1Nc1ncnc(Nc2ccccc2S(=O)(=O)C(C)C)n1 (10 µM)	0
COc1c(Nc2ncc(Cl)c(N[C@H]3[C@@H](C(N)=O)[C@@H]4C=C[C@H]3C4)n2)ccc2c1CC[C@@H](N1CCOCC1)CC2 (10 µM)	0
Cc1ccc(NC(=O)N2CCN(c3nc(N)nc4sc(-c5cccnc5)nc34)CC2)cc1 [PI4KIII beta inhibitor 3] (10 µM)	0
CNc1cc2c(Nc3cccc(Br)c3)ncnc2cn1 (10 µM)	0
CC(C)n1c(CO)nc2c(F)cc(-c3nc(Nc4ccc(CN5CCNCC5)cn4)ncc3F)cc21 (10 µM)	0
CN1CCC(Nc2ccc(C(=O)Nc3cc(-c4ccc5c(c4)OCO5)[nH]n3)cc2)CC1 (10 µM)	0
CNC(=O)CN1CCC(Oc2cc3c(Nc4cccc(Cl)c4F)ncnc3cc2OC)CC1 [Sapitinib] (10 µM)	0
O=C(O)c1c[nH]c2cc(Cl)c(-c3ccc(C4(O)CCC4)cc3)cc12 (10 µM)	0
COc1cc(N2CCC(O)CC2)ccc1Nc1nc(Nc2ccccc2S(=O)(=O)C(C)C)c2[nH]cnc2n1 (10 µM)	0
O=c1c(O)c(-c2ccc(O)c(O)c2)oc2cc(O)c(O)c(O)c12 [Quercetagetin] (10 µM)	0
Cc1ncsc1-c1ccc(CNC(=O)[C@@H]2C[C@@H](O)CN2C(=O)[C@@H](NC(=O)COCCOc2ccc(-c3cc(Nc4ccc(OC(F)(F)F)cc4)ncn3)cc2)C(C)(C)C)cc1 (2.5 µM)	0

Compound	number of time points
COc1cc(Nc2ccnc3ccc(Br)cc23)cc(OC)c1OC (2.5 µM)	0
Cc1ccc2c(NS(=O)(=O)c3ccccc3Cl)cccc2c1Oc1ncccc1-c1ccnc(N[C@H]2CCCNC2)n1 (2.5 µM)	0
CC(C)c1cc2c(c(O)c1O)[C@@]13CCCC(C)(C)[C@@H]1C[C@@H]2OC3=O [Carnosol] (2.5 µM)	0
Cc1nc2c(NCc3cccc(S(C)(=O)=O)c3)nccn2c1-c1ccc(O)c(F)c1 (10 µM)	0
CC(C)n1cnc2c(Nc3cccc(Cl)c3)nc(N[C@H]3CCCC[C@@H]3N)nc21 (2.5 µM)	0
O=c1cc(N2CCOCC2)oc2c(-c3cccc4c3sc3ccccc34)cccc12 (10 µM)	0
C[C@@H]1COC(Nc2ccc3ncnc(Nc4ccc(OCc5nccs5)c(Cl)c4)c3c2)=N1 [Varlitinib] (10 µM)	0
Cc1cncc2cccc(S(=O)(=O)N3CCCNC[C@@H]3C)c12 [H-1152 (dihydrochloride)] (10 µM)	0
CCC[C@H](C)Oc1nc(N)c2[nH]c(=O)n(CCCCCN3CCCCC3)c2n1 (10 µM)	0
CC(C)(Oc1ccc(Cl)cc1)C(=O)Nc1ccc(OCc2ccc(C#N)cc2)cc1 [AMPK activator 4] (10 µM)	1
Cc1cc(N2CCOCC2)ccc1Nc1nc(NC2CCCCC2)c2[nH]cnc2n1 (10 µM)	0
CC(ONC(=O)c1cc(C(F)(F)F)cc(C(F)(F)F)c1)C(=O)Nc1ccc(Cl)cc1 (configuration not stated) (2.5 µM)	0
O=S(=O)(c1ccc(O)cc1O)N1Cc2cc(O)cc(O)c2C1 (10 µM)	0
CN1CCN(c2ccc(-n3cc(-c4ccncc4OCC4CCNCC4)cn3)cc2)CC1 [MELK-8a (hydrochloride)] (10 µM)	1
CCCCC(=O)OCC(=O)[C@]1(O)Cc2c(O)c3c(c(O)c2[C@@H](O[C@H]2C[C@H](NC(=O)C(F)(F)F)[C@H](O)[C@H](C)O2)C1)C(=O)c1c(OC)cccc1C3=O [Valrubicin] (10 µM)	0
CC(C)=CCC[C@](C)(O[C@@H]1O[C@H](CO[C@@H]2O[C@H](CO)[C@@H](O)[C@H](O)[C@H]2O)[C@@H](O)[C@H](O)[C@H]1O)[C@H]1CC[C@]2(C)[C@@H]1[C@H](O)C[C@@H]1[C@@]3(C)CC[C@H](O[C@@H]4O[C@H](CO)[C@@H](O)[C@H](O)[C@H]4O[C@@H]4O[C@H](CO)[C@@H](O)[C@H](O)[C@H]4O)C(C)(C)[C@@H]3CC[C@]12C [Ginsenoside Rb1] (10 µM)	0

Reprinted from the listing for reference:
Compound	number of time points
CC(ONC(=O)c1cc(C(F)(F)F)cc(C(F)(F)F)c1)C(=O)Nc1ccc(Cl)cc1 (configuration not stated) (2.5 µM)	0
O=S(=O)(c1ccc(O)cc1O)N1Cc2cc(O)cc(O)c2C1 (10 µM)	0
